The other results are listed elsewhere or left out.
Tests used:
Assay in all cases: log2 fold change, soluble protein after heating vs DMSO (PISA); higher = thermal stabilisation; K562 cells, 10 uM, 30 min; active = over 0.2 and 3.5 SD of the protein, either way, in both replicates (recomputed)
[1] = compound: CC1=C(C=C(C=C1)NC(=O)C2=CC(=CC=C2)C(C)(C)C#N)NC3=CC4=C(C=C3)N=CN(C4=O)C
Method in brief: (§1)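 Soluble protein was defined as the supernatant after 21,000xg for 90 min. It came from K562 cells at 2×10^6 cells/mL given 10 μM compound for 30 min, heated in aliquots for 3 min across 48°C-58°C, pooled, and extracted in PBS with 0.5% NP-40 at 4°C, and was quantified by TMTpro 16plex LC-MS/MS with equalised channel sums. Thermal stability against control samples, from duplicates, is reported as log2 fold change.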

Sequences of proteins named here, by UniProt entry; tags and fusion partners are left off. A change or cut given only in a name is not applied to a line headed by its entry.
UniProt Q6PJW8: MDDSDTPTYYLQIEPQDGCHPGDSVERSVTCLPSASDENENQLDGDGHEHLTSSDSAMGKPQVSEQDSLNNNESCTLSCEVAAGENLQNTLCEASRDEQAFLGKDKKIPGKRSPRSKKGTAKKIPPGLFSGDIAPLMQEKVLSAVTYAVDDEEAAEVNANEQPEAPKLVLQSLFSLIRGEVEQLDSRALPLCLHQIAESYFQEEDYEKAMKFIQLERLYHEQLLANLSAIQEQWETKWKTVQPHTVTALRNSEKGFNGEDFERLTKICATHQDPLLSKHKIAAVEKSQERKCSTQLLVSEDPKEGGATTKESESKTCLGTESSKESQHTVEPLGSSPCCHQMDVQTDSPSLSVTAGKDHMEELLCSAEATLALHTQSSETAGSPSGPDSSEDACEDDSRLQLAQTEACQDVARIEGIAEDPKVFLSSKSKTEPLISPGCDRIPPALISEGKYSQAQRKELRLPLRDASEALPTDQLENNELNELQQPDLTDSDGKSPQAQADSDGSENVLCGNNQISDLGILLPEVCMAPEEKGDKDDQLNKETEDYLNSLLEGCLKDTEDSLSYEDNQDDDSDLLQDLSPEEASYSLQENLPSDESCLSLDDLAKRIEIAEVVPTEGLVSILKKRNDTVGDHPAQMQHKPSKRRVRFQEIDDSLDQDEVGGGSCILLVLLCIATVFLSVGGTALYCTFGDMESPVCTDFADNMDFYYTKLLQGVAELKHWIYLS
UniProt Q9BW66: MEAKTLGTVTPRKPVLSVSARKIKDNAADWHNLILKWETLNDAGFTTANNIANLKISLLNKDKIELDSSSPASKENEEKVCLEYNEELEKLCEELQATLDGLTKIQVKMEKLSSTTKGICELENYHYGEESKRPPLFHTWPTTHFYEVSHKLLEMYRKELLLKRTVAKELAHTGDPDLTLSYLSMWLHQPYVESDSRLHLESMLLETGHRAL
UniProt Q96S66: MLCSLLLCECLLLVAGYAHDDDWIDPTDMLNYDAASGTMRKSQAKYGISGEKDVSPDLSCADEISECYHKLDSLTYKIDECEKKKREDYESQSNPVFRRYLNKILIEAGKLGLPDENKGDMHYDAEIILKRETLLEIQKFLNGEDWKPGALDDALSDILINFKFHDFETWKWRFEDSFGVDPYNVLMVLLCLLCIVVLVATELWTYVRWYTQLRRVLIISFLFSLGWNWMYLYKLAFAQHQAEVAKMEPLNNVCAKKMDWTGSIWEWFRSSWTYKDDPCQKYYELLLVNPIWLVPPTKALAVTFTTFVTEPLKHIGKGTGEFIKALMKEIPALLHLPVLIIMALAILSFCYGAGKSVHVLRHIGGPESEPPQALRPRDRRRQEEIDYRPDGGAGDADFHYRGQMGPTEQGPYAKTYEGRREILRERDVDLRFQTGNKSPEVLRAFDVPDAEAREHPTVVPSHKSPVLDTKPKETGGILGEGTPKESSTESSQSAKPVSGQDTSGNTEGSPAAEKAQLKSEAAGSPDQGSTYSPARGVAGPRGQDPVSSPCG
UniProt Q00610: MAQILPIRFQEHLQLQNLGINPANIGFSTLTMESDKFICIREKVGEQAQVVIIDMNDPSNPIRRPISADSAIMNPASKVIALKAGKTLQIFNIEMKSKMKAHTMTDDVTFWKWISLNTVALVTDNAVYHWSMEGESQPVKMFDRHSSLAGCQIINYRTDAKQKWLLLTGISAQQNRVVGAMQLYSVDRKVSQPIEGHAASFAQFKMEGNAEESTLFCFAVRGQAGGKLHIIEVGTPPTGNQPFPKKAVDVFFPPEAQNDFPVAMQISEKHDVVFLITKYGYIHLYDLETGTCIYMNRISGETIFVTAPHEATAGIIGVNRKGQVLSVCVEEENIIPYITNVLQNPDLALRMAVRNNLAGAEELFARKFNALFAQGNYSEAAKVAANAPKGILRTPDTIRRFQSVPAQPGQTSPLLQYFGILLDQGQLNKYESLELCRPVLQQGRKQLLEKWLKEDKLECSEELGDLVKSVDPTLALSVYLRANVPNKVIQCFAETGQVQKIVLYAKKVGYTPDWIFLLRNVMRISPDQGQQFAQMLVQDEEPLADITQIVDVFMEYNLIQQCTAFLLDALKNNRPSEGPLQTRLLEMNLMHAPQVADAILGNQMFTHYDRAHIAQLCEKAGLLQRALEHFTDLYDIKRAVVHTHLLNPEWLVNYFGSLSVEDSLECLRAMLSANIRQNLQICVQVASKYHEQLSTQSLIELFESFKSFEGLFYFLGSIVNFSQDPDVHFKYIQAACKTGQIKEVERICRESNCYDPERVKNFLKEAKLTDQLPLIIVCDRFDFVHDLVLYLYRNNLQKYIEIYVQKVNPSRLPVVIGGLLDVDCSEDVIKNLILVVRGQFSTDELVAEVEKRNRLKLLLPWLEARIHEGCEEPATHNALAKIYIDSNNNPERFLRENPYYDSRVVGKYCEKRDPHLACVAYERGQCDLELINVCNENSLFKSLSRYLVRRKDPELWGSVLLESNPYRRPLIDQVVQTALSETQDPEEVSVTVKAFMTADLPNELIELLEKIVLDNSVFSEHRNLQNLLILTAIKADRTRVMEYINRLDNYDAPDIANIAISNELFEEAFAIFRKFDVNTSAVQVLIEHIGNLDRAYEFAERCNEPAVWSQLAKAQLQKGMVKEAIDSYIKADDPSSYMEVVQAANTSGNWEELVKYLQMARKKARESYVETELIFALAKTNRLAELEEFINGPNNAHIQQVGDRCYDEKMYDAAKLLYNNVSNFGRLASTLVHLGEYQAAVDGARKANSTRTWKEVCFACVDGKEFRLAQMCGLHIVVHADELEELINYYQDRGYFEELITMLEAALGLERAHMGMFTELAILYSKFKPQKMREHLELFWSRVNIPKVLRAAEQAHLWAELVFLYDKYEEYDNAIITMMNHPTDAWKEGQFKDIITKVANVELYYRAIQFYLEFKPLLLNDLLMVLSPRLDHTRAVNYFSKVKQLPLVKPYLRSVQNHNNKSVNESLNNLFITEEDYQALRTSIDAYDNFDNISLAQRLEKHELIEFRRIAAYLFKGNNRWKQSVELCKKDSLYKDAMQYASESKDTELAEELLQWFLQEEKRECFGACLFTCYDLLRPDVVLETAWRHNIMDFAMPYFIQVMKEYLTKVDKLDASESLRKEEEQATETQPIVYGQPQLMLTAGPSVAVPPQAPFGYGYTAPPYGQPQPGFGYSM
UniProt Q9GZY4: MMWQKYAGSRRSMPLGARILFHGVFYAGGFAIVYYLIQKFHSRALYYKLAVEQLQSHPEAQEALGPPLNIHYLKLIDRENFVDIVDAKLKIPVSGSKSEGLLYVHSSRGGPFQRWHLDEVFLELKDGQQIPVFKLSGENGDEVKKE
UniProt Q9NY35: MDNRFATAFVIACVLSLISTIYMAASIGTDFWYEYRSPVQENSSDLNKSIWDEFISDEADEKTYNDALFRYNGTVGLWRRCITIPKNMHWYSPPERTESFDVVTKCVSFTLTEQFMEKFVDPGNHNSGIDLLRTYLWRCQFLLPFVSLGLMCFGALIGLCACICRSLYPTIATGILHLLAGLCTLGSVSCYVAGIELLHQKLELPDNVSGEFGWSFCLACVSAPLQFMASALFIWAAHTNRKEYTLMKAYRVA
UniProt Q99828: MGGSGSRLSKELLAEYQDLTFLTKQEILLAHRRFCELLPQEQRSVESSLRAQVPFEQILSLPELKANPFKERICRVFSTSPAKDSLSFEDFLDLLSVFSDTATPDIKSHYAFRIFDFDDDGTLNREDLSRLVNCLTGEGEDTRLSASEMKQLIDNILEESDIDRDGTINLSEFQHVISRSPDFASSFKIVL
UniProt Q96BR5: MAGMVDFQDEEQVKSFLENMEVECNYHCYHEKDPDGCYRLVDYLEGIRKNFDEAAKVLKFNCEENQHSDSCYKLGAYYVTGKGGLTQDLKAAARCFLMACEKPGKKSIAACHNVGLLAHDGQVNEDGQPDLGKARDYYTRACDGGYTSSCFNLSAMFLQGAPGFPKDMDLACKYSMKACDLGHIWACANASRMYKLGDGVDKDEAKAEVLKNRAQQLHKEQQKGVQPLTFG
UniProt P30622: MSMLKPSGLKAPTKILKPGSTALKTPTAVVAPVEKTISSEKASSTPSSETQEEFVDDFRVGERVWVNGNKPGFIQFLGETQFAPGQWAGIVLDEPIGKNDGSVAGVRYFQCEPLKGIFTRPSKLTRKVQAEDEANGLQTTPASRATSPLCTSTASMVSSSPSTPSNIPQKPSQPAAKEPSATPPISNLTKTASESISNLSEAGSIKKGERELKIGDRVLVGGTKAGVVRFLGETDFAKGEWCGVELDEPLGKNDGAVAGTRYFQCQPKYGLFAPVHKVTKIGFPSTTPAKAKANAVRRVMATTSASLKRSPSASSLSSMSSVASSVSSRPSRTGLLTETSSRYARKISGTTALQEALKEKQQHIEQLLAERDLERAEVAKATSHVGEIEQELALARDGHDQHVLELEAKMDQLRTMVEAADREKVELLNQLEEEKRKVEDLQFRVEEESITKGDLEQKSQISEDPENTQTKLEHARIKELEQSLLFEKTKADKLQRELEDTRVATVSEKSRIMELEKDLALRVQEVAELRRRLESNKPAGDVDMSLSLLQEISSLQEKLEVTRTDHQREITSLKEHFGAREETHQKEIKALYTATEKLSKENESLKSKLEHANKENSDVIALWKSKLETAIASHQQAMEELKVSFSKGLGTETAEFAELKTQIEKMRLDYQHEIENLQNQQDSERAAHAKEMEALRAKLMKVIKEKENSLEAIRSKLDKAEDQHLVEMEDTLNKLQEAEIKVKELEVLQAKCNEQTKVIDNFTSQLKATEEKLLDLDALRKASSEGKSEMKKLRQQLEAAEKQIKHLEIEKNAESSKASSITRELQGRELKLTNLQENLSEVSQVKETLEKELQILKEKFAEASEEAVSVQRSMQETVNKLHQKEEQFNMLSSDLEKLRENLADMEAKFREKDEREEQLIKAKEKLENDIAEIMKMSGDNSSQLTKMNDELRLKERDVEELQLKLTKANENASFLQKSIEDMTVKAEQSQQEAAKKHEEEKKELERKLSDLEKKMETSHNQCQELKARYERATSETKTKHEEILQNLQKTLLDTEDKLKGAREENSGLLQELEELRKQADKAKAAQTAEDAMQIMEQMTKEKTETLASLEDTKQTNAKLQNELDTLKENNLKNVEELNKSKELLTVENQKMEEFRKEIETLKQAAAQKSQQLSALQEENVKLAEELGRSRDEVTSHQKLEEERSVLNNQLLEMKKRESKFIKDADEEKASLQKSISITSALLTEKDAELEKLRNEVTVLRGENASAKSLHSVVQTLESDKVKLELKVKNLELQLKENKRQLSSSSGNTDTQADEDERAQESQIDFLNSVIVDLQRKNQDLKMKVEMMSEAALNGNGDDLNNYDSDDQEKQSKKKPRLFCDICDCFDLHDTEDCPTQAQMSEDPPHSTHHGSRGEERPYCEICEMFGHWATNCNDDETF
UniProt Q9NRP2: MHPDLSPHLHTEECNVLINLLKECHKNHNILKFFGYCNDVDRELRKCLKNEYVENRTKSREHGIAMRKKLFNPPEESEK
UniProt Q6FI81: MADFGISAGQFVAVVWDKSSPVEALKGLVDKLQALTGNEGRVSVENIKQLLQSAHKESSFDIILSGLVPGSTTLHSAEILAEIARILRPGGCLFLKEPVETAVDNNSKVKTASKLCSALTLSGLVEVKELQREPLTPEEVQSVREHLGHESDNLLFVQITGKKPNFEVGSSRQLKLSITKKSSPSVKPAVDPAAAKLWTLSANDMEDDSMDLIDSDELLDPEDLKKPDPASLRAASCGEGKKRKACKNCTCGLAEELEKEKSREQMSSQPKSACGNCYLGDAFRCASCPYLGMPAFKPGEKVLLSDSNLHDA
UniProt O14967: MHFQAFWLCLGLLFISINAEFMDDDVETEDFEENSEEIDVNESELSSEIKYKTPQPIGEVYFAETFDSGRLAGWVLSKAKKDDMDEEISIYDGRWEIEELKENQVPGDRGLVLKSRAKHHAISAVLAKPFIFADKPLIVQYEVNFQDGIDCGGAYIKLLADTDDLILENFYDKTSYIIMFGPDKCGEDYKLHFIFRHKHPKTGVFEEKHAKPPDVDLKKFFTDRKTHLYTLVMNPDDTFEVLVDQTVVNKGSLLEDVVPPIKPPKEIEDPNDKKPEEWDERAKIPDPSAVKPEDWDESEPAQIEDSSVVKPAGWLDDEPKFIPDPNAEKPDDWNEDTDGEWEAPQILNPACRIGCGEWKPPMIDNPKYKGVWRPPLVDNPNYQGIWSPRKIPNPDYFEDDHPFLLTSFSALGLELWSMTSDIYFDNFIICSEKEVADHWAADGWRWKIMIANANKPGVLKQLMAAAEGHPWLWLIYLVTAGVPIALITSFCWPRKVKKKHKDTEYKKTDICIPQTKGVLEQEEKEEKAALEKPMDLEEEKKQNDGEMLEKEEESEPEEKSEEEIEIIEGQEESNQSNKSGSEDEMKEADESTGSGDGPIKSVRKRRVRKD

[2] = compound: CC1=C(C=C(C=C1)NC(=O)C2=CC(=CC=C2)N(C)C)NC(=O)C3=CC=C(C=C3)O
Method in brief: as §1

[3] = compound: CC1=CC=C(C=C1)SC2=C3C=C(SC3=CN=C2)C(=O)N
Method in brief: as §1

[4] = compound: CC1=NC(=CC=C1)C2=C(N=C(N2)C(C)(C)C)C3=CC4=NC=CN=C4C=C3
Method in brief: as §1

Nexturastat A = compound: CCCCN(Cc1ccc(C(=O)NO)cc1)C(=O)Nc1ccccc1 [Nexturastat A]
Method in brief: as §1

vemurafenib = compound: CCCS(=O)(=O)Nc1ccc(F)c(C(=O)c2c[nH]c3ncc(-c4ccc(Cl)cc4)cc23)c1F [vemurafenib]
Method in brief: as §1

[5] = compound: CCCS(=O)(=O)Nc1ccc(F)c(C(=O)c2c[nH]c3ncc(Cl)cc23)c1F
Method in brief: as §1

[6] = compound: CCCc1cc(C)[nH]c(=O)c1CNC(=O)c1cc(-c2ccnc(N3CCN(C)CC3)c2)cc2c1cnn2C(C)C
Method in brief: as §1

givinostat = compound: CCN(CC)Cc1ccc2cc(COC(=O)Nc3ccc(C(=O)NO)cc3)ccc2c1 [givinostat]
Method in brief: as §1

barasertib = compound: CCN(CCCOc1ccc2c(Nc3cc(CC(=O)Nc4cccc(F)c4)[nH]n3)ncnc2c1)CCOP(=O)(O)O [barasertib]
Method in brief: as §1

[7] = compound: CC[C@@H]1C(=O)N(C)c2cnc(Nc3ccc(C(=O)NC4CCN(C)CC4)cc3OC)nc2N1C1CCCC1
Method in brief: as §1

volasertib = compound: CC[C@@H]1C(=O)N(C)c2cnc(Nc3ccc(C(=O)N[C@H]4CC[C@H](N5CCN(CC6CC6)CC5)CC4)cc3OC)nc2N1C(C)C [volasertib]
Method in brief: as §1

[8] = compound: CC[C@H](C)N1C=C(C2=C(C=C(C=C21)C3=CN=C(C=C3)N4CCNCC4)C(=O)NCC5=C(C=C(NC5=O)C)C)C
Method in brief: as §1

epoxomicin = compound: CC[C@H](C)[C@@H](C(=O)N[C@@H]([C@@H](C)O)C(=O)N[C@@H](CC(C)C)C(=O)[C@]1(CO1)C)NC(=O)[C@H]([C@@H](C)CC)N(C)C(=O)C [epoxomicin]
Method in brief: as §1

[9] = compound: CCn1c(C(=O)N(C2CC2)C2CC2)cc2c3c(ncn3C)c(Nc3cc(C)n(C)n3)nc21
Method in brief: as §1

[10] = compound: CCn1cc(-c2ccnc3[nH]c(-c4cccc(CN(C)C)c4)cc23)c(-c2ccc(NC(=O)N(C)C)cc2)n1
Method in brief: as §1

[11] = compound: CN(C)CC(=O)Nc1ccc2[nH]c(=O)c3ccccc3c2c1
Method in brief: as §1

rosiglitazone = compound: CN(CCOC1=CC=C(C=C1)C[C@H]2C(=O)NC(=O)S2)C3=CC=CC=N3 (racemic) [rosiglitazone]
Method in brief: as §1

[12] = compound: CN1C2=C(C3=C1C(=O)N(N=C3)CC4=CC(=CC=C4)N)SC(=C2)S(=O)C
Method in brief: as §1

[13] = compound: CN1CCC(CNc2ccc3ncc(-c4cccc(OC(F)(F)F)c4)n3n2)CC1
Method in brief: as §1

Measured: log2 fold change

CNOT6L (UniProt Q96LI5)
inactive: [1] -0.047 | [2] 0.028 | [3] -0.02 | [4] -0.054 | Nexturastat A 0 | vemurafenib 0.028 | [5] 0 | [6] -0.02 | givinostat -0.016 | barasertib 0.015 | [7] -0.244 | volasertib -0.064 | [8] -0.059 | epoxomicin -0.019 | [9] -0.093 | [10] 0.019 | [11] -0.065 | rosiglitazone 0.18 | [12] 0.061 | [13] -0.075

CNST (UniProt Q6PJW8)
inactive: [1] -0.004 | [2] -0.048 | [3] 0.011 | [4] -0.009 | Nexturastat A -0.027 | vemurafenib -0.015 | [5] -0.014 | [6] -0.015 | givinostat -0.046 | barasertib 0.012 | [7] 0.039 | volasertib -0.047 | [8] 0.018 | epoxomicin 0.044 | [9] -0.018 | [10] -0.083 | [11] -0.01 | rosiglitazone 0.011 | [12] -0.058 | [13] 0.019

CINP isoform 3 (UniProt Q9BW66)
inactive: [1] -0.02 | [2] -0.002 | [3] 0.033 | [4] 0.026 | Nexturastat A 0.045 | vemurafenib -0.023 | [5] 0.031 | [6] -0.141 | givinostat -0.005 | barasertib -0.012 | [7] 0.009 | volasertib 0.065 | [8] -0.01 | epoxomicin 0.038 | [9] -0.015 | [10] 0.093 | [11] -0.01 | rosiglitazone -0.038 | [12] 0.037 | [13] -0.015

CLCC1 (UniProt Q96S66)
inactive: [1] 0.017 | [2] -0.019 | [3] 0.003 | [4] 0.009 | Nexturastat A -0.072 | vemurafenib -0.003 | [5] -0.013 | [6] -0.098 | givinostat 0.001 | barasertib -0.013 | [7] 0.029 | volasertib -0.025 | [8] -0.047 | epoxomicin -0.025 | [9] 0.013 | [10] 0.009 | [11] 0.018 | rosiglitazone 0.023 | [12] -0.052 | [13] 0.022

CLTC (UniProt Q00610)
inactive: [1] 0.046 | [2] -0.02 | [3] 0.005 | [4] -0.012 | Nexturastat A 0.07 | vemurafenib 0.017 | [5] 0.088 | [6] -0.01 | givinostat 0.079 | barasertib -0.005 | [7] 0.086 | volasertib -0.195 | [8] -0.114 | epoxomicin -0.006 | [9] 0.032 | [10] -0.075 | [11] -0.006 | rosiglitazone -0.019 | [12] 0.014 | [13] 0.173

COA1 (UniProt Q9GZY4)
inactive: [1] -0.028 | [2] 0.018 | [3] 0.008 | [4] -0.006 | Nexturastat A -0.014 | vemurafenib -0.049 | [5] 0.006 | [6] -0.032 | givinostat -0.004 | barasertib 0.016 | [7] -0.012 | volasertib 0.025 | [8] -0.013 | epoxomicin -0.021 | [9] 0.014 | [10] -0.035 | [11] -0.047 | rosiglitazone -0.005 | [12] -0.011 | [13] -0.114

CLDND1 (UniProt Q9NY35)
inactive: [1] 0.085 | [2] -0.06 | [3] -0.065 | [4] -0.046 | Nexturastat A 0.01 | vemurafenib -0.089 | [5] -0.11 | [6] -0.066 | givinostat -0.03 | barasertib 0.023 | [7] 0.094 | volasertib 0.263 | [8] -0.028 | epoxomicin -0.014 | [9] 0.058 | [10] 0.034 | [11] -0.03 | rosiglitazone -0.111 | [12] 0.02 | [13] 0.24

CIB1 isoform 2 (UniProt Q99828)
inactive: [1] 0.014 | [2] -0.018 | [3] 0.003 | [4] 0.034 | Nexturastat A 0.063 | vemurafenib 0.053 | [5] -0.073 | [6] 0.152 | givinostat -0.067 | barasertib -0.012 | [7] 0.041 | volasertib -0.058 | [8] -0.026 | epoxomicin 0.097 | [9] 0.049 | [10] -0.132 | [11] 0 | rosiglitazone 0.008 | [12] 0.05 | [13] -0.034

COA7 (UniProt Q96BR5)
inactive: [1] -0.003 | [2] -0.005 | [3] 0.081 | [4] 0.047 | Nexturastat A -0.11 | vemurafenib -0.013 | [5] 0.096 | [6] -0.112 | givinostat -0.081 | barasertib 0.027 | [7] -0.012 | volasertib 0.024 | [8] 0.017 | epoxomicin 0.046 | [9] 0.037 | [10] 0 | [11] -0.013 | rosiglitazone 0.023 | [12] -0.029 | [13] -0.065

CKAP5 (UniProt Q14008)
inactive: [1] 0.005 | [2] -0.028 | [3] 0.02 | [4] -0.017 | Nexturastat A 0.23 | vemurafenib 0.054 | [5] 0.094 | [6] 0.065 | givinostat 0.075 | barasertib 0.049 | [7] -0.049 | volasertib -0.307 | [8] 0.122 | epoxomicin 0.057 | [9] -0.061 | [10] 0.011 | [11] 0.062 | rosiglitazone 0.029 | [12] 0.123 | [13] -0.17

CNOT9 isoform 2 (UniProt Q92600)
inactive: [1] -0.099 | [2] -0.014 | [3] 0.065 | [4] 0.027 | Nexturastat A 0.086 | vemurafenib 0.042 | [5] 0.05 | [6] 0.026 | givinostat 0.043 | barasertib 0.04 | [7] -0.028 | volasertib -0.165 | [8] 0.024 | epoxomicin -0.007 | [9] -0.006 | [10] -0.007 | [11] 0.016 | rosiglitazone 0.014 | [12] -0.02 | [13] -0.053

CLIC1 (UniProt O00299)
inactive: [1] -0.003 | [2] 0.015 | [3] 0.053 | [4] 0.017 | Nexturastat A -0.039 | vemurafenib 0.021 | [5] -0.01 | [6] -0.04 | givinostat -0.028 | barasertib 0.028 | [7] -0.061 | volasertib -0.038 | [8] 0.025 | epoxomicin 0.017 | [9] 0.014 | [10] -0.02 | [11] -0.015 | rosiglitazone -0.004 | [12] -0.058 | [13] 0.026

CLIP1 isoform 1 (UniProt P30622)
inactive: [1] -0.004 | [2] -0.01 | [3] -0.015 | [4] -0.013 | Nexturastat A -0.078 | vemurafenib 0.017 | [5] -0.02 | [6] 0.001 | givinostat -0.015 | barasertib 0 | [7] 0.017 | volasertib 0.026 | [8] -0.032 | epoxomicin -0.002 | [9] 0.013 | [10] 0.008 | [11] -0.005 | rosiglitazone -0.001 | [12] -0.057 | [13] -0.023

CMC2 (UniProt Q9NRP2)
inactive: [1] -0.029 | [2] -0.019 | [3] -0.058 | [4] 0.058 | Nexturastat A -0.025 | vemurafenib 0.017 | [5] -0.076 | [6] -0.072 | givinostat -0.238 | barasertib 0.035 | [7] -0.031 | volasertib 0.076 | [8] 0.048 | epoxomicin -0.031 | [9] 0.012 | [10] -0.004 | [11] -0.016 | rosiglitazone -0.014 | [12] -0.013 | [13] 0.066

CIAPIN1 (UniProt Q6FI81)
inactive: [1] 0.074 | [2] -0.026 | [3] 0.024 | [4] 0.012 | Nexturastat A -0.026 | vemurafenib 0.009 | [5] 0.032 | [6] -0.058 | givinostat -0.042 | barasertib 0.016 | [7] -0.034 | volasertib -0.1 | [8] 0.036 | epoxomicin 0.037 | [9] 0.009 | [10] -0.037 | [11] 0.004 | rosiglitazone 0.045 | [12] -0.079 | [13] -0.034

CLGN (UniProt O14967)
inactive: [1] 0.015 | [2] -0.032 | [3] 0.014 | [4] -0.037 | Nexturastat A 0.075 | vemurafenib -0.06 | [5] 0.054 | [6] 0.06 | givinostat -0.022 | barasertib -0.105 | [7] -0.001 | volasertib -0.204 | [8] 0.046 | epoxomicin 0.036 | [9] -0.003 | [10] 0.042 | [11] 0.03 | rosiglitazone 0.025 | [12] 0.2 | [13] 0.008

Fetched one by one from the entries so far, two records:
CLGN (UniProt O14967)
inactive: [1] 0.015 | [2] -0.032 | [3] 0.014 | [4] -0.037 | Nexturastat A 0.075 | vemurafenib -0.06 | [5] 0.054 | [6] 0.06 | givinostat -0.022 | barasertib -0.105 | [7] -0.001 | volasertib -0.204 | [8] 0.046 | epoxomicin 0.036 | [9] -0.003 | [10] 0.042 | [11] 0.03 | rosiglitazone 0.025 | [12] 0.2 | [13] 0.008

CIAPIN1 (UniProt Q6FI81)
inactive: [1] 0.074 | [2] -0.026 | [3] 0.024 | [4] 0.012 | Nexturastat A -0.026 | vemurafenib 0.009 | [5] 0.032 | [6] -0.058 | givinostat -0.042 | barasertib 0.016 | [7] -0.034 | volasertib -0.1 | [8] 0.036 | epoxomicin 0.037 | [9] 0.009 | [10] -0.037 | [11] 0.004 | rosiglitazone 0.045 | [12] -0.079 | [13] -0.034
